# Laboratory results taken from publication PMC4935888.
# Target: T1, recombinant viral envelope protein rVP28 with a GST tag (White spot syndrome virus) (UniProt Q9ICB7)
# T1 sequence: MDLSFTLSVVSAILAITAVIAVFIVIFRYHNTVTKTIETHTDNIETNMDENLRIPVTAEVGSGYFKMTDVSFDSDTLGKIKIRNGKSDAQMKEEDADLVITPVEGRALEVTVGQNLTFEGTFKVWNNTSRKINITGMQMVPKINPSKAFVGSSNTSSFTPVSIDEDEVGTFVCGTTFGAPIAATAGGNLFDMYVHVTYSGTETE
# Experiment: pull-down; Hpt cell lysate pulled down with rVP28, GST as control; anti-β-tubulin or anti-β-actin immunoblot; only the target purified
row,Substance,binding
1,Cq-β-actin,binds
2,Cq-β-tubulin,binds

# No constants are given. Whether binding was seen depends on the method and setting. Binding seen in cells or lysates may run through a third protein. Binding can be weak; no strength is given. Sequences can lack the tags named with a protein.
